Melanoma cell counts after drug treatment

Source: doi:10.1371/journal.pone.0140310, primary screening data, rounded.

Drugs:
PF-04217903, 1000 nM: OCCn1cc(-c2cnc3nnn(Cc4ccc5ncccc5c4)c3n2)cn1
NVP-TAE684, 80 nM: COc1cc(N2CCC(N3CCN(C)CC3)CC2)ccc1Nc1ncc(Cl)c(Nc2ccccc2S(=O)(=O)C(C)C)n1
sunitinib, 400 nM: CCN(CC)CCNC(=O)c1c(C)[nH]c(/C=C2\C(=O)Nc3ccc(F)cc32)c1C
KU-0063794, 20 nM: COc1ccc(-c2ccc3c(N4CCOCC4)nc(N4C[C@@H](C)O[C@@H](C)C4)nc3n2)cc1CO
midostaurin, 80 nM: CO[C@@H]1[C@H](N(C)C(=O)c2ccccc2)C[C@H]2O[C@]1(C)n1c3ccccc3c3c4c(c5c6ccccc6n2c5c31)C(=O)NC4
gemcitabine, 0.4 nM: Nc1ccn([C@@H]2O[C@H](CO)[C@@H](O)C2(F)F)c(=O)n1
bortezomib, 1 nM: CC(C)C[C@H](NC(=O)[C@H](Cc1ccccc1)NC(=O)c1cnccn1)B(O)O
NVP-BEZ235, 4 nM: Cn1c(=O)n(-c2ccc(C(C)(C)C#N)cc2)c2c3cc(-c4cnc5ccccc5c4)ccc3ncc21

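The test systems are human melanoma cell lines, treated with a pair of drugs for 72 h and then stained and imaged. The read-out is cell count (nuclei) in % of the DMSO control; lower values mean stronger growth inhibition or killing. Concentrations were fixed for each drug; these are the lower of two levels, a fifth of the higher. The file gives one value for each pair and line, without errors, so small differences may be noise.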 This is part of the screen, not chosen by result. A dash means that no value is listed here.

| Pair | COLO 792 | IPC-298 | IST-MEL1 | 501mel | LOX IMVI | A375 | A2058 | COLO 800 | COLO 829 | G-361 | LB2518-MEL | A101D | MEL-HO | C32 |
|---|---|---|---|---|---|---|---|---|---|---|---|---|---|---|
| midostaurin + bortezomib | 96.2 | 82.2 | 83.0 | - | 92.6 | 90.6 | 76.8 | 58.5 | 63.6 | 7.9 | 35.2 | 33.8 | 83.4 | 81.7 |
| gemcitabine + KU-0063794 | 89.2 | 63.6 | 66.8 | 86.9 | 90.3 | - | 78.0 | 54.8 | 92.7 | 83.0 | 91.8 | 98.5 | 86.1 | 103 |
| NVP-BEZ235 + KU-0063794 | 89.8 | 89.4 | 91.9 | - | 88.2 | - | 76.5 | 65.3 | 81.6 | 92.3 | - | 70.7 | 77.3 | 86.6 |
| bortezomib + gemcitabine | 97.4 | 71.1 | 76.9 | - | 105 | 113 | 93.5 | 77.4 | 25.1 | 2.6 | 38.4 | 18.8 | 99.5 | 93.5 |
| PF-04217903 + KU-0063794 | 92.0 | 98.5 | 100 | 81.5 | 99.3 | 86.9 | 91.5 | 96.7 | 94.6 | 98.5 | 94.1 | 100 | 110 | 104 |
| PF-04217903 + sunitinib | 87.6 | 95.0 | 108 | - | 64.8 | 80.1 | 98.3 | - | 129 | 111 | 129 | 109 | 119 | 103 |
| sunitinib + KU-0063794 | 94.4 | 103 | 96.7 | 65.7 | 148 | - | 100 | 38.5 | 123 | 115 | 103 | 89.1 | 89.2 | 97.3 |
| NVP-TAE684 + bortezomib | 78.8 | 79.6 | 87.5 | 25.4 | 225 | - | 73.4 | 72.5 | 82.4 | 8.2 | 47.5 | 28.5 | 62.4 | 81.4 |
| gemcitabine + midostaurin | 95.6 | 86.1 | 71.2 | - | 75.2 | 84.0 | 79.3 | 62.1 | 93.5 | 84.2 | 93.2 | 94.7 | 101 | 110 |
| midostaurin + KU-0063794 | 89.2 | 88.7 | 98.5 | 89.5 | 49.1 | 97.4 | 81.3 | 116 | 85.2 | 93.6 | 96.3 | 96.2 | 91.4 | 111 |
| midostaurin + NVP-BEZ235 | 93.1 | 89.7 | 93.1 | - | 53.3 | 76.8 | 88.0 | 91.6 | 88.9 | 96.8 | 85.9 | 74.6 | 76.2 | 89.3 |
| sunitinib + midostaurin | 94.4 | 105 | 98.5 | - | 121 | 88.5 | 94.4 | 77.7 | 108 | 103 | 93.9 | 74.4 | 109 | 82.5 |
| NVP-BEZ235 + PF-04217903 | 97.6 | 102 | 101 | - | 109 | 100 | 93.0 | 122 | 107 | 83.7 | 91.8 | 85.1 | 85.1 | 112 |
| sunitinib + NVP-TAE684 | 79.5 | 105 | 109 | 66.4 | 133 | - | 93.6 | 79.1 | 134 | 84.5 | 75.4 | 95.1 | 97.2 | 84.8 |
| gemcitabine + PF-04217903 | 82.6 | 77.2 | 65.6 | - | 103 | 87.2 | 93.2 | 62.2 | 86.3 | 69.3 | 72.5 | 73.8 | 65.5 | 104 |
| bortezomib + sunitinib | 113 | 89.4 | 102 | - | 141 | 98.6 | 125 | 81.2 | 97.6 | 38.7 | 70.6 | 61.6 | 105 | 97.1 |
| bortezomib + PF-04217903 | 97.4 | 85.9 | 82.3 | - | 52.5 | 89.0 | 88.2 | 74.0 | 59.6 | 11.0 | 42.1 | 48.7 | 84.1 | 96.4 |
| gemcitabine + NVP-TAE684 | 92.0 | 94.4 | 67.3 | 104 | 99.0 | - | 73.1 | 75.3 | 97.4 | 103 | 102 | 109 | 79.8 | 89.8 |
| NVP-BEZ235 + sunitinib | 88.0 | 103 | 95.3 | - | 135 | 67.8 | 101 | 60.4 | 104 | 109 | 119 | 75.3 | 102 | 95.4 |
| gemcitabine + sunitinib | 103 | 98.5 | 82.2 | - | 138 | 82.8 | 121 | 70.4 | 123 | 88.8 | 108 | 91.5 | 93.5 | 89.2 |
| NVP-TAE684 + midostaurin | 97.8 | 104 | 101 | 92.4 | 85.9 | 95.1 | 64.1 | 82.5 | 87.2 | 85.1 | 81.4 | 98.1 | 78.8 | 93.1 |
| KU-0063794 + bortezomib | 106 | 74.9 | 87.9 | 38.3 | 80.4 | - | 96.6 | 99.9 | 48.4 | 4.1 | 38.8 | 27.8 | 78.2 | 89.9 |
| NVP-BEZ235 + NVP-TAE684 | 79.1 | 92.2 | 87.5 | 72.6 | 98.2 | - | 82.3 | 104 | 110 | 103 | 110 | 75.9 | 89.6 | 78.6 |
| PF-04217903 + NVP-TAE684 | 91.6 | 101 | 96.5 | 90.8 | 76.2 | 90.2 | 94.7 | 78.5 | 93.6 | 88.7 | 81.3 | 106 | 92.2 | 96.9 |
| gemcitabine + NVP-BEZ235 | 90.1 | 92.9 | 68.8 | - | 57.7 | 90.1 | 84.8 | 90.5 | 80.5 | 80.5 | 116 | 89.5 | 82.7 | 109 |

Once more, the final 2:

Pair	COLO 792	IPC-298	IST-MEL1	501mel	LOX IMVI	A375	A2058	COLO 800	COLO 829	G-361	LB2518-MEL	A101D	MEL-HO	C32
PF-04217903 + NVP-TAE684	91.6	101	96.5	90.8	76.2	90.2	94.7	78.5	93.6	88.7	81.3	106	92.2	96.9
gemcitabine + NVP-BEZ235	90.1	92.9	68.8	-	57.7	90.1	84.8	90.5	80.5	80.5	116	89.5	82.7	109